Tested on: horseradish peroxidase (HRP)
Test: Inhibition of ABTS turnover catalyzed by a high amount of HRP (sandwich ELISA, CAM-induced Jurkat cell lysate)
Format: biochemical, horseradish (Armoracia rusticana)
Settings: high concentrations of 0.5 to 0.25M
Procedure: FIG. 2, A and B: inhibition of ABTS turnover catalyzed by a high amount of HRP detection of a high amount of mono- and oligosomes in Jurkat cells; further details are given in Example 1. All other designations are the same as in FIG. 1. Jurkat cells were cultured and subsequently divided into two culture dishes. In one dish the cells were treated with 1 μg/ml CAM (Camptothecin) to induce apoptosis, thereby leading to the formation of mono and oligonucleosomes, the target antigen. After an incubation period of 4 hours the cells of both dishes were harvested separately by centrifugation, lysed by the detergent contained in the Cell Death Detection ELISA Plus (Roche Diagnostics GmbH, Mannheim, Germany; Catalog No. 1920685), and frozen. The mono and oligonucleosomes consisting of DNA and histones H2A, H2B, H3 and H4 were detected in thawed cell homogenate by way of a sandwich ELISA. Antigen was captured with a first monoclonal antibody against histone from the Cell Death Detection ELISA Plus kit. The antibody was coated onto the walls of a 96-well microplate. The detection antibody was a DNA-specific polyclonal antibody conjugated with horseradish peroxidase. Non-induced and CAM-induced Jurkat cells yielded low and high amounts of target antigen, thereby leading to low and high absolute amounts of horseradish peroxidase enzymatic activity in the respective wells. […]

O=C(O)C(=O)O [oxalic acid]
Precipitation of the substrate: cause precipitation of the substrate

O=S(=O)(O)O [sulfuric acid]
Precipitation of the substrate: cause precipitation of the substrate
